In PMC6377406:
Where two headings read alike, the source gives them in different places. Results are given in words; binding and its absence hold for the method and conditions named. Binding seen in cells or lysates may run through a third protein. Binding calls can cover weak binding; strength is not graded here. Values belong to the molecule of their own block, whether it stands above or below them.

By UniProt entry, the sequences of proteins in these tests, tags left out. Residues count along the entry.
UniProt Q9BXM7, residues 78-581: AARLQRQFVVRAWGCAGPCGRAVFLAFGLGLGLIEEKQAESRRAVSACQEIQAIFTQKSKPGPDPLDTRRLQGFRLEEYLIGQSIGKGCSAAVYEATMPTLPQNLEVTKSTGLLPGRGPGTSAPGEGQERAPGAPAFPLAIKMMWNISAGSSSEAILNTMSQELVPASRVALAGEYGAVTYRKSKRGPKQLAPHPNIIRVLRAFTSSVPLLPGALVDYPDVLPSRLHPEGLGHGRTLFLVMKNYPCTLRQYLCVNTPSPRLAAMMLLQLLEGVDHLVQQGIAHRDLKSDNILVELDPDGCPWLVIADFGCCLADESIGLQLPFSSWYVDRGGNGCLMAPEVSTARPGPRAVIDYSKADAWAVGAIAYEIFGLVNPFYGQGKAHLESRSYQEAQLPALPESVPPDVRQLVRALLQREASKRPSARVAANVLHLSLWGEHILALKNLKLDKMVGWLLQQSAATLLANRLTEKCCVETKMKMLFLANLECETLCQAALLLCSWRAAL

Key:
[1] = target: PINK1-GFP (UniProt Q9BXM7); experiment: co-IP; GFP IP (μMACS Epitope Tag Protein Isolation kit) of lysates of transfected HEK293 cells; immunoblot
[2] = target: WT-PINK1-FLAG (UniProt Q9BXM7); experiment: co-IP; FLAG IP of HEK293 cells co-expressing MYC-tagged VCP domain constructs and PINK1-3xFLAG; immunoblot
[3] = target: PINK1-GFP (UniProt Q9BXM7); experiment: co-IP; GFP IP (μMACS Epitope Tag Protein Isolation kit) of lysates of transfected HEK293 cells; immunoblot; remark: listed apart in the source

binding [1]: binds
Molecule: valosin-containing protein (VCP), endogenous in HEK293 cells (from UniProt P55072 1-806)

binding [2]: binds
Molecule: MYC-tagged VCP D1 domain (from UniProt P55072) (domain or fragment)

binding [3]: binds
B1: NSFL1C/p47, endogenous in HEK293 cells (protein, UniProt Q9UNZ2 1-370)
chain: MAAERQEALREFVAVTGAEEDRARFFLESAGWDLQIALASFYEDGGDEDIVTISQATPSSVSRGTAPSDNRVTSFRDLIHDQDEDEEEEEGQRFYAGGSERSGQQIVGPPRKKSPNELVDDLFKGAKEHGAVAVERVTKSPGETSKPRPFAGGGYRLGAAPEEESAYVAGEKRQHSSQDVHVVLKLWKSGFSLDNGELRSYQDPSNAQFLESIRRGEVPAELRRLAHGGQVNLDMEDHRDEDFVKPKGAFKAFTGEGQKLGSTAPQVLSTSSPAQQAENEAKASSSILIDESEPTTNIQIRLADGGRLVQKFNHSHRISDIRLFIVDARPAMAATSFILMTTFPNKELADESQTLKEANLLNAVIVQRLT
